Measured values from article PMC4546416.
Results are given in words; binding and its absence hold for the method and conditions named. In cells and extracts the contact can be indirect. A result given as binding can be weak or reduced; the word gives no strength.

The chains behind the UniProt entries cited, without tags or fusion partners. Where a name states a change or a piece, a line headed by the entry shows the natural chain unless it says otherwise.
UniProt O54992: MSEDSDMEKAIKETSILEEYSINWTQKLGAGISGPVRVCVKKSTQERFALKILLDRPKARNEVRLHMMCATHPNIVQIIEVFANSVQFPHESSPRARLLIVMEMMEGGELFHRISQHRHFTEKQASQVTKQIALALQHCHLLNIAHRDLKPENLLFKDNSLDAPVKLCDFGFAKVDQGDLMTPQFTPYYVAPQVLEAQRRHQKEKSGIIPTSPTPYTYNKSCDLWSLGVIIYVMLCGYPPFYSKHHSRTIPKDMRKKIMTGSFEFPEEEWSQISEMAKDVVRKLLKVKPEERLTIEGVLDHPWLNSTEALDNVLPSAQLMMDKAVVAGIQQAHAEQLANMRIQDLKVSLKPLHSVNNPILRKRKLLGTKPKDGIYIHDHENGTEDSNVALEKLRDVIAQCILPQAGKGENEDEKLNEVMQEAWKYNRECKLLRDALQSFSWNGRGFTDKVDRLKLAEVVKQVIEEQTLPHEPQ
UniProt Q16659: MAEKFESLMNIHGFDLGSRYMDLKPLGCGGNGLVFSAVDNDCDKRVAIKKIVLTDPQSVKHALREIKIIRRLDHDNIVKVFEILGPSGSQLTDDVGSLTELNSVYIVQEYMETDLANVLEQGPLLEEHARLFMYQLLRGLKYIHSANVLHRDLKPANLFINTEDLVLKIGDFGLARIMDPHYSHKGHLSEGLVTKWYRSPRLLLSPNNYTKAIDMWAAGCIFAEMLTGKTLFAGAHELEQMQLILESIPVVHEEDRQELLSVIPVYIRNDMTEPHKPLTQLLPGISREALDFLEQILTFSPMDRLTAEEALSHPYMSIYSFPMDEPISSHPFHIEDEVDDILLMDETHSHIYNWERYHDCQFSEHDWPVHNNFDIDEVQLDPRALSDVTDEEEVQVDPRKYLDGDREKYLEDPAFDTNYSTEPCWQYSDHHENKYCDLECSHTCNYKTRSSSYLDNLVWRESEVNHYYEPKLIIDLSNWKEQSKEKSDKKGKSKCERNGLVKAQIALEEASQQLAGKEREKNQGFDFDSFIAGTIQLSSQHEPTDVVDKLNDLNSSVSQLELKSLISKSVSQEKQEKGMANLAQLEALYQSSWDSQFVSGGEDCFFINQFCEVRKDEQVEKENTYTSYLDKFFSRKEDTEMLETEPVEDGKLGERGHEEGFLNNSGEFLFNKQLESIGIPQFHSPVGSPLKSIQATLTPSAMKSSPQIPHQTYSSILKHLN

Molecular target: GFP-tagged MK5/PRAK-Δex6 (exon 6 deletion mutant) (mouse) (UniProt O54992)
Experiment: co-IP; GFP-MK5/PRAK or its Δex6 / Δex8 mutants co-expressed with His-ERK3 in HEK293 cells; lysates (10 mM Tris/HCl pH 7.5, 150 mM NaCl, 0.5 mM EDTA, 0.5% NP-40, then diluted) incubated with GFP nanobodies on M-270 epoxy magnetic beads, 1 h at 4°C; washes up to 300 mM NaCl; ERK3 seen by Coomassie stain and by Western blot against ERK3

Substance: His-ERK3 (from UniProt Q16659 1-721) (enzyme)
- binding: binds
